PubChem BioAssay AID686938, Drosophila RNAi Screening Center – 2013
The deposit covers about 23,000 reagents; below is an unselected part of those that have a named target and a result. Over the whole deposit, 75 (0.33%) were called active. 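Raw plate signals without normalisation; calls rest on plate z-scores that were not deposited; ratio present for only 364 wells.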 Reagent sequences are not shown. Not stated in the record: the dose of the treatment.

- Purpose: 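Fly genes required for calcium entry once internal stores are emptied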 (primary screen)
- Cell system: Drosophila S2R+ cells
- Reagents: long dsRNA against Drosophila genes, about 0.25 µg dsRNA per well, roughly 10,000 cells
- Time to read-out: 5 days of knock-down before the calcium assay
- Conditions: thapsigargin (SERCA pump blocker) to empty calcium stores; entry signal taken 4 min after adding it
- Measurement: 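Duplicate raw fluo-4 intensities per well from a plate reader, at rest and four minutes after thapsigargin emptied calcium stores; entry-to-rest ratio filled for only some wells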
- Direction: calcium entry signal: higher = stronger calcium signal after store depletion; resting calcium signal: higher = higher resting calcium signal
- Units: calcium entry signal in fluorescence units; resting calcium signal in fluorescence units
- Hit rule: 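Called when the plate z-score of the entry-to-rest ratio, mean of duplicates, falls below −3; wells with low overall dye signal (Fmax z below −2) or more than five off-targets excluded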
- Calls: active = strongly reduced calcium entry; inactive = no strong reduction

The opening 2 entries, ahead of the listing:
CG15046 [DRSC19622] — calcium entry signal, replicate 1 = 5.47e7; calcium entry signal, replicate 2 = 3.19e7; resting calcium signal, replicate 1 = 2.76e7; resting calcium signal, replicate 2 = 1.43e7; Outcome = inactive
ND-39 (NADH dehydrogenase (ubiquinone) 39 kDa subunit) [DRSC11791] — calcium entry signal, replicate 1 = 4.30e7; calcium entry signal, replicate 2 = 5.98e7; resting calcium signal, replicate 1 = 1.77e7; resting calcium signal, replicate 2 = 3.58e7; Outcome = inactive

The listing, from the first entry:
CG15046 [DRSC19622] — calcium entry signal, replicate 1 = 5.47e7; calcium entry signal, replicate 2 = 3.19e7; resting calcium signal, replicate 1 = 2.76e7; resting calcium signal, replicate 2 = 1.43e7; Outcome = inactive
ND-39 (NADH dehydrogenase (ubiquinone) 39 kDa subunit) [DRSC11791] — calcium entry signal, replicate 1 = 4.30e7; calcium entry signal, replicate 2 = 5.98e7; resting calcium signal, replicate 1 = 1.77e7; resting calcium signal, replicate 2 = 3.58e7; Outcome = inactive
TfIIA-S (Transcription-factor-IIA-S) [DRSC16883] — calcium entry signal, replicate 1 = 3.54e7; calcium entry signal, replicate 2 = 3.92e7; resting calcium signal, replicate 1 = 1.72e7; resting calcium signal, replicate 2 = 1.56e7; Outcome = inactive
EndoG (Endonuclease G) [DRSC07292] — calcium entry signal, replicate 1 = 3.98e7; calcium entry signal, replicate 2 = 3.36e7; resting calcium signal, replicate 1 = 1.73e7; resting calcium signal, replicate 2 = 1.60e7; Outcome = inactive
EndoG (Endonuclease G) [DRSC22746] — calcium entry signal, replicate 1 = 3.60e7; calcium entry signal, replicate 2 = 4.83e7; resting calcium signal, replicate 1 = 1.99e7; resting calcium signal, replicate 2 = 2.35e7; Outcome = inactive
tey (teyrha-meyrha) [DRSC11042] — calcium entry signal, replicate 1 = 3.54e7; calcium entry signal, replicate 2 = 3.56e7; resting calcium signal, replicate 1 = 1.63e7; resting calcium signal, replicate 2 = 1.71e7; Outcome = inactive
tey (teyrha-meyrha) [DRSC21709] — calcium entry signal, replicate 1 = 3.15e7; calcium entry signal, replicate 2 = 3.35e7; resting calcium signal, replicate 1 = 1.70e7; resting calcium signal, replicate 2 = 1.48e7; Outcome = inactive
CG3701 (retired record) [DRSC04408] — calcium entry signal, replicate 1 = 2.35e7; calcium entry signal, replicate 2 = 2.24e7; resting calcium signal, replicate 1 = 1.26e7; resting calcium signal, replicate 2 = 1.11e7; Outcome = inactive
CG3701 (retired record) [DRSC04409] — calcium entry signal, replicate 1 = 2.41e7; calcium entry signal, replicate 2 = 2.42e7; resting calcium signal, replicate 1 = 1.30e7; resting calcium signal, replicate 2 = 1.07e7; Outcome = inactive
ppan (peter pan) [DRSC17030] — calcium entry signal, replicate 1 = 2.21e7; calcium entry signal, replicate 2 = 2.73e7; resting calcium signal, replicate 1 = 1.45e7; resting calcium signal, replicate 2 = 6.34e7; Outcome = inactive
TotA (Turandot A) [DRSC13448] — calcium entry signal, replicate 1 = 5.35e7; calcium entry signal, replicate 2 = 3.46e7; resting calcium signal, replicate 1 = 2.33e7; resting calcium signal, replicate 2 = 1.67e7; Outcome = inactive
CG31075 [DRSC16016] — calcium entry signal, replicate 1 = 3.54e7; calcium entry signal, replicate 2 = 5.13e7; resting calcium signal, replicate 1 = 1.73e7; resting calcium signal, replicate 2 = 2.28e7; Outcome = inactive
CG6216 [DRSC10606] — calcium entry signal, replicate 1 = 3.58e7; calcium entry signal, replicate 2 = 4.93e7; resting calcium signal, replicate 1 = 1.60e7; resting calcium signal, replicate 2 = 2.06e7; Outcome = inactive
Dap160 (Dynamin associated protein 160) [DRSC01834] — calcium entry signal, replicate 1 = 1.65e7; calcium entry signal, replicate 2 = 3.41e7; resting calcium signal, replicate 1 = 7.80e6; resting calcium signal, replicate 2 = 3.01e7; Outcome = inactive
Dap160 (Dynamin associated protein 160) [DRSC03313] — calcium entry signal, replicate 1 = 3.48e7; resting calcium signal, replicate 1 = 1.81e7; Outcome = inactive
